Assay in all cases: log2 fold change, soluble protein after heating vs DMSO (PISA); higher = thermal stabilisation; K562 cells, 10 uM, 30 min; active = over 0.2 and 3.5 SD of the protein, either way, in both replicates (recomputed)
Compound in test [1]: CS(=O)(=O)c1ccc(-c2cnc(N)c(C(=O)Nc3ccccc3)n2)cc1
The procedure, abridged: (§1)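 K562 cells at 2×10^6 cells/mL were given 10 μM compound for 30 min. Aliquots then went through 3 min of heating across 48°C-58°C, were pooled, and were extracted in PBS with 0.5% NP-40 at 4°C, and the supernatant after 21,000xg for 90 min was quantified by TMTpro 16plex LC-MS/MS with channel sums equalised. Thermal stability relative to control samples, from duplicates, is given as log2 fold change.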

Protein sequences, listed by entry. Tags and fused reporters are not part of them. Lines headed by an entry give the natural chain unless they say otherwise; changes in a name come on top.
UniProt Q9UKA4: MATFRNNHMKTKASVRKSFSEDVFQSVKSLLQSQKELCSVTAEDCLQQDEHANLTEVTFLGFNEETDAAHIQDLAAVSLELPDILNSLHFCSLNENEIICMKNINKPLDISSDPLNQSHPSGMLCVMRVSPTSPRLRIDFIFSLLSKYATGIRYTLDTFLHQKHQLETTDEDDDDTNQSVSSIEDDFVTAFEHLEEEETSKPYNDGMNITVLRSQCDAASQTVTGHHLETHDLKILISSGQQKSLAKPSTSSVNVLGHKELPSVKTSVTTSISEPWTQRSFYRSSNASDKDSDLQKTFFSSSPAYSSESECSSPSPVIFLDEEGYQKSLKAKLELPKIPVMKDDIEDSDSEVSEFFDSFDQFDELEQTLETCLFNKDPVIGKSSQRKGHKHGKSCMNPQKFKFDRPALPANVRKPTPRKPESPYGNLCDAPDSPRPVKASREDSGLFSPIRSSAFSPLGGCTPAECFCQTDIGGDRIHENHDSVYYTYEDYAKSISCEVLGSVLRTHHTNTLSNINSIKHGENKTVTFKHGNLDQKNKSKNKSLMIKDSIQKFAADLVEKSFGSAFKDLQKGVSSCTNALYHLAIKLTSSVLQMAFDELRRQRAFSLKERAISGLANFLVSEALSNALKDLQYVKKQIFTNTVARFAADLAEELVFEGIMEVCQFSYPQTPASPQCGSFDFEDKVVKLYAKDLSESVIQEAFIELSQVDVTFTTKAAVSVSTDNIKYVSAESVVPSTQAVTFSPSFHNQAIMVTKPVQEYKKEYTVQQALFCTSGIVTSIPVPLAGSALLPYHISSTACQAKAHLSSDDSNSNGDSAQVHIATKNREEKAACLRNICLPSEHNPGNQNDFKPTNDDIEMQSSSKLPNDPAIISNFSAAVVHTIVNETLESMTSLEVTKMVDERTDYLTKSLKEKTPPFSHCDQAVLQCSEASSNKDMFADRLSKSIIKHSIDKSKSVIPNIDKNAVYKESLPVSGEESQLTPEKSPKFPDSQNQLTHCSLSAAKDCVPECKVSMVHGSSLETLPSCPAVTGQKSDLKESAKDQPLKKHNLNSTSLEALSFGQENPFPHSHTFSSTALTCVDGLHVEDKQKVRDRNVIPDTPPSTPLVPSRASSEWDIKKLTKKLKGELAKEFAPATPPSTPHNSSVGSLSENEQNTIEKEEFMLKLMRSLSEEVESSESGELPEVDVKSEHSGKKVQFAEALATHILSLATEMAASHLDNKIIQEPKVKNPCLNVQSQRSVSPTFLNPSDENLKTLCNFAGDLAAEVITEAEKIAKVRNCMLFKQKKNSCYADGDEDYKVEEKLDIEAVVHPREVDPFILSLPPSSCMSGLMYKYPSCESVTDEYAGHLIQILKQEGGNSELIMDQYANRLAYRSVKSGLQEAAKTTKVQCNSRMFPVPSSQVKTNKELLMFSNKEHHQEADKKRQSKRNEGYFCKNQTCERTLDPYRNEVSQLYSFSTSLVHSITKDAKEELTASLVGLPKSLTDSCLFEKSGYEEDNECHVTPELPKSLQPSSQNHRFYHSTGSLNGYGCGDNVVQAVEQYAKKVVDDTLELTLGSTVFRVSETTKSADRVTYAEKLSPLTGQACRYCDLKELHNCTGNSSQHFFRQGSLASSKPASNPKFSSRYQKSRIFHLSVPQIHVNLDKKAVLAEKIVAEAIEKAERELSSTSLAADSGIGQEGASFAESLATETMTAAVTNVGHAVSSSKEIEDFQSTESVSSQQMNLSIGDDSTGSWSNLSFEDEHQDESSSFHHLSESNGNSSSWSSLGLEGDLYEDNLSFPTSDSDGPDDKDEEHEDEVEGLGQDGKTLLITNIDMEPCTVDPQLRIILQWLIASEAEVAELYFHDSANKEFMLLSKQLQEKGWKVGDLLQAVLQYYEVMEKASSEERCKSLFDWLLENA
UniProt P05091: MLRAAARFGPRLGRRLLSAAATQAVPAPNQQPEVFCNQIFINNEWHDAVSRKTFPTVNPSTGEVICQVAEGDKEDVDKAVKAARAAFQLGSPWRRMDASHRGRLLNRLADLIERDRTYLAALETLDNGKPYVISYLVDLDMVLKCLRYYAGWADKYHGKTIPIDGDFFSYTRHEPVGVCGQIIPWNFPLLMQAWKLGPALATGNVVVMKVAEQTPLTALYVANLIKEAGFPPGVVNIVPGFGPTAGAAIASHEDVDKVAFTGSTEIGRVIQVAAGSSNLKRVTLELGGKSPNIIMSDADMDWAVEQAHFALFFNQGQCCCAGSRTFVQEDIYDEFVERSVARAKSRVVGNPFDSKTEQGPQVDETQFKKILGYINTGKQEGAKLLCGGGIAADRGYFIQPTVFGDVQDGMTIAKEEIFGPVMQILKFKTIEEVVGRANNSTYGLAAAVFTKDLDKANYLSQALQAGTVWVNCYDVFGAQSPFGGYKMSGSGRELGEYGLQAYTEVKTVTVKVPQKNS
UniProt P55008: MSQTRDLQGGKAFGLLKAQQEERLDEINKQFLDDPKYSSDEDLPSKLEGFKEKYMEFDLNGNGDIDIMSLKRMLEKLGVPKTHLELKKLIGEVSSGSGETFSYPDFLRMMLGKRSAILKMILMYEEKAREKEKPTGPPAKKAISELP
UniProt Q96P47: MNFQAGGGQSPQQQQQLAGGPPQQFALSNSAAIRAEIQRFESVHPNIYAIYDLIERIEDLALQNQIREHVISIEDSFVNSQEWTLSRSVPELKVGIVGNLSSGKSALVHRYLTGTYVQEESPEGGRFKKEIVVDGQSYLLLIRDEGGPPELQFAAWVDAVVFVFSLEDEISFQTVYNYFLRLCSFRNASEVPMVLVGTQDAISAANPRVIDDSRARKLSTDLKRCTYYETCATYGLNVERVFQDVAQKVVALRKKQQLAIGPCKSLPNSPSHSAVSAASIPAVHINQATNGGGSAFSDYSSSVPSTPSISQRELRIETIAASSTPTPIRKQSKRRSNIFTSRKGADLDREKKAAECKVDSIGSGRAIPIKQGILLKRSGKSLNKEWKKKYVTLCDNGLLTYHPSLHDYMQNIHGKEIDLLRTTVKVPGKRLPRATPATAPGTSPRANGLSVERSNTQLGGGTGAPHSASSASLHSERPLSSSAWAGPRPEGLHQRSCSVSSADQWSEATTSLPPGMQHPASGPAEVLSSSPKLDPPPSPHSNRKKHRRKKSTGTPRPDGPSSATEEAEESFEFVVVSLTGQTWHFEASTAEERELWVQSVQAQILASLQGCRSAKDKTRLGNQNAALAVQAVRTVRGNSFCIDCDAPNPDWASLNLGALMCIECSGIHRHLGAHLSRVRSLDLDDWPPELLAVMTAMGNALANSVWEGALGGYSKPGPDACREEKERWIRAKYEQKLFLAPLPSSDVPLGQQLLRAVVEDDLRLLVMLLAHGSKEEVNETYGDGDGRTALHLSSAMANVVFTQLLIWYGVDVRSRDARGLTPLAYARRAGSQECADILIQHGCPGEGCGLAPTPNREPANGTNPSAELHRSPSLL
UniProt P04075: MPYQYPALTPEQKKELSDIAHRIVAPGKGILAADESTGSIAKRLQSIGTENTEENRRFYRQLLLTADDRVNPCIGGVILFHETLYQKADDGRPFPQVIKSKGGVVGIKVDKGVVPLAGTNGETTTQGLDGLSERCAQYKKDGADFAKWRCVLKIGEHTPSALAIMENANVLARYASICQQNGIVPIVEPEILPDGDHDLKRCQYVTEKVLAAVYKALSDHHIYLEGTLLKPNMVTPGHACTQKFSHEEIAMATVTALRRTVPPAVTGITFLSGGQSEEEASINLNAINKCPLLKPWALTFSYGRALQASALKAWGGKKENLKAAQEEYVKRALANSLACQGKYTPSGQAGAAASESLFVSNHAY
UniProt Q6RW13: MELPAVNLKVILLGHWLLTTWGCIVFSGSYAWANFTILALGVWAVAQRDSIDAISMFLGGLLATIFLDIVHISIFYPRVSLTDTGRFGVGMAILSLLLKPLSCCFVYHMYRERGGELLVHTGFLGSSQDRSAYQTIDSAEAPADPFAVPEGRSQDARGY
UniProt Q9C0C7: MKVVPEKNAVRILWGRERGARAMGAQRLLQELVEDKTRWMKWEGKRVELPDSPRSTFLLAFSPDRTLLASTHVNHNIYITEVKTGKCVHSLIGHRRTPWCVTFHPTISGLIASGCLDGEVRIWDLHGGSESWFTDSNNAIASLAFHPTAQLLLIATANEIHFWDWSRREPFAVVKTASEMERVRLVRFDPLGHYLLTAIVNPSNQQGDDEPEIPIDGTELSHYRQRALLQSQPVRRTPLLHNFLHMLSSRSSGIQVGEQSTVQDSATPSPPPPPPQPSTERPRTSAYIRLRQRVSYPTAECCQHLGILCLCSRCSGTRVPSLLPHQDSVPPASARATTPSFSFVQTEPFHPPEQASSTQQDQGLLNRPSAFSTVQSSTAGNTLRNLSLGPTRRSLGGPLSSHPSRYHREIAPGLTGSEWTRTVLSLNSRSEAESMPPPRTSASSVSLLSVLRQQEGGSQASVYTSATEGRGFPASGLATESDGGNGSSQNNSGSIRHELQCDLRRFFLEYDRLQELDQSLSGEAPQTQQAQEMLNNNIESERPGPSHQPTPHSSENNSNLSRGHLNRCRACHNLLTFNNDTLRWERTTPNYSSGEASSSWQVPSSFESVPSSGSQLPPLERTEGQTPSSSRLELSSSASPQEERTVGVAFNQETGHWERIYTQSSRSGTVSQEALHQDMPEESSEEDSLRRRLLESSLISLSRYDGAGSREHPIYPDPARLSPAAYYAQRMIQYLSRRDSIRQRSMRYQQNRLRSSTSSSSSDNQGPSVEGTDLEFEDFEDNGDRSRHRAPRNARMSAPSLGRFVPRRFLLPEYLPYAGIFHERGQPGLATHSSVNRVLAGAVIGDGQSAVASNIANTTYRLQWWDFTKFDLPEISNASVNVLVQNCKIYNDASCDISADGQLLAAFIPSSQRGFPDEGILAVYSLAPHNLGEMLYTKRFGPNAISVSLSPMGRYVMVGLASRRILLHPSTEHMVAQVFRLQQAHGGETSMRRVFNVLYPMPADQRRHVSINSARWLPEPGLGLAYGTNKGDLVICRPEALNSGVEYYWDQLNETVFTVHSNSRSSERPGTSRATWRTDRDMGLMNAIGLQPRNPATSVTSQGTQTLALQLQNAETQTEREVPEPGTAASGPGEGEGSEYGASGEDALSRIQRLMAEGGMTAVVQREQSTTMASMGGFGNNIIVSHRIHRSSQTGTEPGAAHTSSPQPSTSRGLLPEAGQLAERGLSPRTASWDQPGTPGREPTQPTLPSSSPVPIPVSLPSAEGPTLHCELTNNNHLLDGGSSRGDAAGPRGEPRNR
UniProt P51828: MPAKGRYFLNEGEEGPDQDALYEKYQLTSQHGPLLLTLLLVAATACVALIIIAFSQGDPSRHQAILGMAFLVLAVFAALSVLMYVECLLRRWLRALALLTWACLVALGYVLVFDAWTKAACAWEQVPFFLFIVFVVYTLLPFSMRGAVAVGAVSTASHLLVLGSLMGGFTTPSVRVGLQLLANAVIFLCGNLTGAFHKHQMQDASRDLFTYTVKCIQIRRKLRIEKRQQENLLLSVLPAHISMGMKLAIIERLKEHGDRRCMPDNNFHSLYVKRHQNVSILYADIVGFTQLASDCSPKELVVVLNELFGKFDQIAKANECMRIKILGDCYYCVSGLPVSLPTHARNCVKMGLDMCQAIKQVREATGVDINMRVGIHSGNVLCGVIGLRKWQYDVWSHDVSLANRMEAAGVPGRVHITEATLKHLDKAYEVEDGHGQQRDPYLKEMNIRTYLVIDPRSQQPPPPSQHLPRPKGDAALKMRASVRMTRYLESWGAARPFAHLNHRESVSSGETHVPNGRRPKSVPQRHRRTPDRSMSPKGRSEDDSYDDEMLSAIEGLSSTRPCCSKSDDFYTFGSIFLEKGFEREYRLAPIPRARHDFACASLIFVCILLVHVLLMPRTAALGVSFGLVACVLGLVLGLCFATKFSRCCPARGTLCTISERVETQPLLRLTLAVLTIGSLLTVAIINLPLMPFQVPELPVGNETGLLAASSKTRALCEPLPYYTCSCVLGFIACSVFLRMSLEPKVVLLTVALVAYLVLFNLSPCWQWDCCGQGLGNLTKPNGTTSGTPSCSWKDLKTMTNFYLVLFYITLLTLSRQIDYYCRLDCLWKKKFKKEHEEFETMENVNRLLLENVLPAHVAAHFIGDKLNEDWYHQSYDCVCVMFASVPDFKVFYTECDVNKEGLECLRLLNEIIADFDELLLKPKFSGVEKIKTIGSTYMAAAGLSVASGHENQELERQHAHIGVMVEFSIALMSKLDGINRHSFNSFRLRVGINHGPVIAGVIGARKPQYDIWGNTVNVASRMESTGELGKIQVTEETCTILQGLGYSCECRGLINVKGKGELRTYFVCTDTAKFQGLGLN

Compound in another test: C[C@@H](Oc1cc(-c2cnn(C3CCNCC3)c2)cnc1N)c1c(Cl)ccc(F)c1Cl [crizotinib]
An outline of the steps: as §1

Compound in test [2]: C[C@H](C1=CC=C(C=C1)C(=O)NC2=C3C=CNC3=NC=C2)N
An outline of the steps:
as §1

Compound in another test: Cc1cc(Nc2cc(CN3CCOCC3)c3nc(C)c(Cc4ccc(Cl)cc4F)n3n2)n[nH]1 [gandotinib]
The procedure, abridged: as §1

Compound in a further test: Cc1ccc(-n2nc(C(C)(C)C)cc2NC(=O)Nc2ccc(OCCN3CCOCC3)c3ccccc23)cc1 [doramapimod]
An outline of the steps: as §1

Compound in test [3]: C[C@@H]1COCCN1C2=NC(=NC(=C2)C3(CC3)S(=O)(=O)C)C4=C5C=CNC5=CC=C4
The procedure, abridged: as §1

Compound in a further test: Cc1cc(Nc2cc(N3CCN(C)CC3)nc(Sc3ccc(NC(=O)C4CC4)cc3)n2)n[nH]1 [tozasertib]
The procedure, abridged: as §1

Compound in the next test: Cc1ccc(C(=O)N(CCCN)[C@@H](c2nc3cc(Cl)ccc3c(=O)n2Cc2ccccc2)C(C)C)cc1 [ispinesib]
An outline of the steps:
as §1

Compound in test [4]: Cc1cc(SCc2sc(-c3ccc(C(F)(F)F)cc3)nc2C)ccc1OCC(=O)O
The procedure, abridged: as §1

Compound in the next test: C[C@H](Nc1ncnc2nc[nH]c12)c1cc2cccc(Cl)c2c(=O)n1-c1ccccc1 [duvelisib]
The procedure, abridged: as §1

The other results are listed elsewhere or left out.

For AKAP11 (UniProt Q9UKA4), the log2 fold change in test [1] was inactive: 0.06; with crizotinib it was inactive: 0.116; in test [2], inactive: 0.315; with gandotinib, inactive: 0.062; in the test with doramapimod, inactive: -0.1.

Take ADGRE2 (UniProt Q9UHX3): the log2 fold change in [1] is inactive: -0.034; with crizotinib it was inactive: 0.04; in test [3], inactive: 0.151; with gandotinib, inactive: 0.022; with tozasertib, inactive: -0.02; with doramapimod, inactive: 0.051. Also, in the test with ispinesib, the log2 fold change was inactive: 0.216.

As for ALDOB (UniProt P05062), the log2 fold change in test [1] was inactive: 0.01; in test [3], inactive: -0.165.

As for ALDH2 isoform 2 (UniProt P05091), the log2 fold change in [1] was inactive: 0.209; in test [3], inactive: 0.244; with gandotinib, inactive: -0.027; with ispinesib it was inactive: -0.214.

ALG11 (UniProt Q2TAA5): the log2 fold change is inactive: 0.142 in test [1]; inactive: 0.007 with crizotinib; inactive: 0.103 in test [3]; inactive: -0.04 in test [2]; inactive: -0.129 in the test with gandotinib; inactive: 0.015 in test [4]. Besides, the log2 fold change was inactive: 0.038 in the test with doramapimod and inactive: 0.029 with ispinesib.

As to AKNA (UniProt Q7Z591), the log2 fold change in test [1] was inactive: -0.015; in test [2], inactive: -0.02.

With AIF1 (UniProt P55008), the log2 fold change was inactive: 0.008 in test [1], inactive: 0.11 in test [3] and inactive: -0.317 with ispinesib.

Consider AMFR (UniProt Q9UKV5), for which the log2 fold change in test [1] is inactive: -0.008; with crizotinib, inactive: -0.04; in [3], inactive: 0.018; in test [2], inactive: -0.034; with gandotinib it was inactive: 0.012; in [4] it was inactive: 0.071. Moreover, the figures for the log2 fold change with doramapimod and with ispinesib were inactive: 0.057 and active: -0.331, respectively.

As to AGAP3 isoform 4 (UniProt Q96P47), the log2 fold change in test [1] is inactive: -0.041; with crizotinib, inactive: -0.231; in test [3], inactive: -0.133; in [2] it was inactive: 0.07; in the test with doramapimod, inactive: 0.125; in the test with ispinesib it was inactive: -0.069.

With ALDOA (UniProt P04075), the log2 fold change is inactive: 0.086 in [1]; inactive: -0.033 with duvelisib; inactive: -0.005 in the test with gandotinib; inactive: -0.102 with tozasertib; inactive: -0.016 in test [4]; inactive: -0.202 with ispinesib.

On to AGTRAP isoform 2 (UniProt Q6RW13), for which the log2 fold change with gandotinib was inactive: 0.006; in the test with tozasertib, inactive: 0.005.

On to ADGB (UniProt Q8N7X0), for which the log2 fold change was inactive: 0.093 with crizotinib, inactive: -0.242 in test [3], inactive: 0.497 in the test with gandotinib and inactive: -0.139 in the test with doramapimod.

As to ALMS1 (UniProt Q8TCU4), in the test with gandotinib, the log2 fold change is inactive: 0.013.

Consider AMBRA1 isoform 5 (UniProt Q9C0C7), for which the log2 fold change in test [3] is inactive: 0.083; in test [2], inactive: -0.08; in the test with duvelisib, inactive: 0.137; with tozasertib, inactive: -0.024; in test [4], inactive: 0.125.

Consider ADGRD1 isoform 4 (UniProt Q6QNK2), for which the log2 fold change was inactive: -0.001 in the test with crizotinib; inactive: 0.078 in [2]; inactive: -0.148 with duvelisib; inactive: -0.091 in the test with tozasertib; inactive: 0.05 in test [4]; inactive: -0.004 in the test with doramapimod.

For AFF1 isoform 2 (UniProt P51825), the log2 fold change with crizotinib was inactive: -0.084; in test [3], inactive: -0.011; with duvelisib it was inactive: 0.031; with gandotinib it was inactive: 0.049; in [4], inactive: -0.135; in the test with doramapimod, inactive: 0.123.

ANAPC15 isoform 2 (UniProt P60006): the log2 fold change with crizotinib was inactive: 0.016; in test [2], inactive: 0.228; with tozasertib it was inactive: -0.023; in the test with doramapimod, inactive: -0.059.

For the target AKAP9 isoform 6 (UniProt Q99996), the log2 fold change with crizotinib was inactive: -0.088; in [3], inactive: -0.317; in test [2] it was inactive: 0.478; with doramapimod, inactive: 0.238; with ispinesib it was inactive: -0.291.

On to ALS2 (UniProt Q96Q42), for which the values for the log2 fold change (in [3]; with tozasertib; with ispinesib) were inactive: 0.045, inactive: -0.073 and inactive: -0.289, respectively.

Turning to ADCY7 (UniProt P51828), the log2 fold change in test [3] is inactive: -0.041; in test [2], inactive: -0.023; with duvelisib, inactive: -0.015; in the test with gandotinib it was inactive: -0.437; in [4], inactive: 0.078; with ispinesib, inactive: 0.008.

Source of the values: the supplement of paper PMC10849652.
